In publication PMC9237525, “Solution Structure of Tubuliform Spidroin N-Terminal Domain and Implications for pH Dependent Dimerization” (Frontiers in Molecular Biosciences, 2022):
These are yes or no findings as the source states them, for the method shown.

Molecular target: Argiope argentata tubuliform spidroin (TuSp 1) N-terminal domain, wild type (Argiope argentata)
Experiment: condition: only at pH 8 with 300 mM NaCl (3 mg/ml loaded); SEC; Superdex 75 Increase 10/300 GL, 50 µl at 3 mg/ml, 20 mM Tris-HCl, 300 mM NaCl, pH 8.0; both purified

B1: Argiope argentata tubuliform spidroin (TuSp 1) N-terminal domain, wild type (domain or fragment)
chain: AVTAVPSVFSSPNLASGFLQCLTFGIGNSPAFPTQEQQDLDAIAQVILNAVSTNTGATASARAQALSTALASSLTDLLIAESAESNYNNQLSELTGILSNCFIQTTGSDNPAFVSRIQSLISVLSQNTDVNIISTA
notes: Tubuliform spidroin 1 (TuSp 1) N-terminal domain, Argiope argentata; 136 residues (count printed for the A70E variant); Expressed from pET-32a-HisTrxHisNT; Intramolecular disulfide C22-C102; 15N- or 13C,15N-labelled for NMR; Calculated mass 14.1 kDa (monomer); also called TuSp NT; wt TuSp NT; not shown: His-Trx, N-terminal, cleaved
In the case of B1, the binding is reported as “no binding”.
